We go through one substance from paper PMC7247312.

These are yes or no findings as the source states them, for the method shown.

The target of the assay is Δ123 monomer (hepatitis C virus genotype 1a, H77c) (UniProt P27958). The assay can be described thus: SEC; analytical SEC of the pooled and concentrated monomeric fractions, Superdex 200 10/300; both purified. A general note: Size exclusion chromatography separates by hydrodynamic size, large species first.

As for “Δ123 monomer (from UniProt P27958 409-460; P27958 486-569; P27958 581-661) (domain or fragment)”, the binding entry is reported as “no binding”.
